Data reported in patent publication US20140255921.
Where a protein sequence is shown, tags need not be part of it. For some assays here: For at least one entry, the source does not settle the construct or the ends of the probe.

Tests used:
[1] = target: T1, Hel308 Mbu (Methanococcoides burtonii) (UniProt Q12WZ6); assay: activity assay; details: 1 mM ATP, purified recombinant protein, protein details: ONLP3302
T1 sequence: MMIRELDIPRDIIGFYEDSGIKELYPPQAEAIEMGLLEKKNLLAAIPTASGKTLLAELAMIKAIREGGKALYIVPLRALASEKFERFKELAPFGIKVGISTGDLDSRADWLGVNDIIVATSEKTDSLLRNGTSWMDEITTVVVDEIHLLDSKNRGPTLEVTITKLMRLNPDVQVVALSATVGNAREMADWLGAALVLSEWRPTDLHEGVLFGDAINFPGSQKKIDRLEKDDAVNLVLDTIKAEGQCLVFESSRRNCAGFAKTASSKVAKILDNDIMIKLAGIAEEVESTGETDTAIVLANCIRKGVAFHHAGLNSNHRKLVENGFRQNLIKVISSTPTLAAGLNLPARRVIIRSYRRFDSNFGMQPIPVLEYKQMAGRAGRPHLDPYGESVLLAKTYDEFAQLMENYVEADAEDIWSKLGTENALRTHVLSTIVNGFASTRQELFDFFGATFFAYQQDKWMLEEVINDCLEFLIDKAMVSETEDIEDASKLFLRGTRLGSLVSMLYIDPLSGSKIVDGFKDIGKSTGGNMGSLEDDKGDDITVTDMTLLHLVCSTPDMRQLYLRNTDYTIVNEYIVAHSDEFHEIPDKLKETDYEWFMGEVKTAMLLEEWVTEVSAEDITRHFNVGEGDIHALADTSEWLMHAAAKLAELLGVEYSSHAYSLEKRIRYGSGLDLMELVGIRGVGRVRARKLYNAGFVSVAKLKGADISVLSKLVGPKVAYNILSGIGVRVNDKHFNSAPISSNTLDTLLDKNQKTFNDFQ

[2] = test system: T2, Hel308 Mok (Methanothermococcus okinawensis); assay: activity assay; details: 400 mM NaCl, 1 mM ATP, 10 mM MgCl2, purified recombinant protein, label: 5' FAM and 3' BHQ1 on SEQ 72
T2 sequence: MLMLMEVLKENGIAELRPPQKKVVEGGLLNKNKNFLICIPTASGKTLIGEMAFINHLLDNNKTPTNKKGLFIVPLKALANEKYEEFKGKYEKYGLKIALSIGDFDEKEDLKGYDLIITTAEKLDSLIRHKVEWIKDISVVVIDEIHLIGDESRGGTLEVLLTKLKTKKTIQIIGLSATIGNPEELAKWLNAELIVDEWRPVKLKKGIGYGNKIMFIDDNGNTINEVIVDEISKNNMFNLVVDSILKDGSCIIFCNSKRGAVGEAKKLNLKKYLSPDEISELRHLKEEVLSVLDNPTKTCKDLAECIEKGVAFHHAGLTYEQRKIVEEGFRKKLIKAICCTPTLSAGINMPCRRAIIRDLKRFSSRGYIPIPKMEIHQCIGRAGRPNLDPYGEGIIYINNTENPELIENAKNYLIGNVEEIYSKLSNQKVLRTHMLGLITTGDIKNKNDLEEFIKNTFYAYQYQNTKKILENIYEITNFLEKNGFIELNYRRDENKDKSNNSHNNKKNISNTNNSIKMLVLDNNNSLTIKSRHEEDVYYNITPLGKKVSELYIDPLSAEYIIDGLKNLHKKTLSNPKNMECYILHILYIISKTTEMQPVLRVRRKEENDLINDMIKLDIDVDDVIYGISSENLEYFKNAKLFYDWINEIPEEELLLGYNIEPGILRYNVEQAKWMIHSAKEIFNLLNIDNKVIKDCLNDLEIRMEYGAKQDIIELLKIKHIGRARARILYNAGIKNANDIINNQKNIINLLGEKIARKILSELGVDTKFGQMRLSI

[3] = target: T1, Hel308 Mbu (Methanococcoides burtonii); assay: binding assay; details: helicase-controlled DNA movement through MspA nanopore; 400 mM-2 M KCl, 1 mM ATP, 1 mM MgCl2, pH 8.0; purified recombinant protein; protein details: ONLP3302; label: 3' cholesterol on SEQ 60
[4] = test system: T3, Hel308 Mhu (Methanospirillum hungatei); assay: binding assay; details: controlled movement through MspA nanopore; 400 mM KCl, 1 mM ATP, Mg; purified recombinant protein; label: 3' cholesterol on SEQ 60
T3 sequence: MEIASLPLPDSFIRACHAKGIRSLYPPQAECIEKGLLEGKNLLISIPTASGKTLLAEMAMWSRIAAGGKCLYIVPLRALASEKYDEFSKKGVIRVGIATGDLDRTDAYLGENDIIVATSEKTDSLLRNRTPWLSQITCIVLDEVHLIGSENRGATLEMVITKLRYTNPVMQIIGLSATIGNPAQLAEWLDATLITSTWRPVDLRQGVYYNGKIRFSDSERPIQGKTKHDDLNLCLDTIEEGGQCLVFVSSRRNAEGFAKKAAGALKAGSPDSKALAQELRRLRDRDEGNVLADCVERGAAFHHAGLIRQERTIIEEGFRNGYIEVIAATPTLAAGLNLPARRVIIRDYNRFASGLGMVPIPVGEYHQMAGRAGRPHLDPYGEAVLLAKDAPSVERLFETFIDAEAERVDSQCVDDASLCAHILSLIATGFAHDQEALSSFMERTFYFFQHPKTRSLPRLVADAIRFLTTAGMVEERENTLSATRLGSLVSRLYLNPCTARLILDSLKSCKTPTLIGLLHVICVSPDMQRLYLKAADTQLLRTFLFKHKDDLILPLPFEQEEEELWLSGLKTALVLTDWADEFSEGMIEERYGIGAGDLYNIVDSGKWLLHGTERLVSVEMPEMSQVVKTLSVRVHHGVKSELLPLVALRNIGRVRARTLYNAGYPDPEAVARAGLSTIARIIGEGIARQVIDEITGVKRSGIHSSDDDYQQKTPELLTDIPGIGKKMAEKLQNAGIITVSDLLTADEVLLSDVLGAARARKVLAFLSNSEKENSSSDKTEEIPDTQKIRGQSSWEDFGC

[5] = test system: T2, Hel308 Mok (Methanothermococcus okinawensis); assay: binding assay; details: controlled movement through MspA nanopore; 400 mM KCl, 1 mM ATP, Mg; purified recombinant protein; label: 3' cholesterol on SEQ 60
[6] = test system: T4, Hel308 Mma (Methanococcus maripaludis); assay: binding assay; details: controlled movement through MspA nanopore; 400 mM KCl, 1 mM ATP, Mg; purified recombinant protein; label: 3' cholesterol on SEQ 60
T4 sequence: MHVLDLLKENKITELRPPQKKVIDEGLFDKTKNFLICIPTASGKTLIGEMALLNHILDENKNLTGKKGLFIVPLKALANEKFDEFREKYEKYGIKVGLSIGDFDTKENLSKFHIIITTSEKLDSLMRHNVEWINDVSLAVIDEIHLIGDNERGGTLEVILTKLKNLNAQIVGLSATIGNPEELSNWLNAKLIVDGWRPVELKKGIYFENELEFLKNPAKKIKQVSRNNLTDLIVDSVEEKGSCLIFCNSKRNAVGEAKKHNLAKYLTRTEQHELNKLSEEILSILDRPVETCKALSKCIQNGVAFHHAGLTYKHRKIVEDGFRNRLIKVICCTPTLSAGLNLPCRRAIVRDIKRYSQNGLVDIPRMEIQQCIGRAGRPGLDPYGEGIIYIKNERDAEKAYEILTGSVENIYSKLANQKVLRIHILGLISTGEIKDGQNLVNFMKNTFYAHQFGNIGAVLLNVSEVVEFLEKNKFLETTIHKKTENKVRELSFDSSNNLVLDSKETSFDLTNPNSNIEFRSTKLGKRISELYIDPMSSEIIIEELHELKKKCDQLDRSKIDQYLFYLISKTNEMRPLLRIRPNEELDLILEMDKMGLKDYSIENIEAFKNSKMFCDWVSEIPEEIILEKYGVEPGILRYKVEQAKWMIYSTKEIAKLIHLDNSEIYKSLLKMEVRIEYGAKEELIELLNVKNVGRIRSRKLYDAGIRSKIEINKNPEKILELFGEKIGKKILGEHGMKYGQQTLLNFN

## CTATTCTGTTTATGTTTCTTGTTTGTTAGCCCTATTCTGTCCCCCCCCCCACCCCCCCCCACCCCCCCCCACCCCCCCCC / ACAGAATAGGGCTAACAAACAAGAAACATAAACAGAATAG [fluorescent unwinding substrate (Example 2)]
[1]; fluorescence unwinding assay, active from 400 mM to 2 M KCl, 5 mM MgCl2, pH 8.0, label: 5' FAM on SEQ 61, 3' BHQ1 on SEQ …
  activity on this sequence: active

## TCGCTGCTCCACAGGTCTCAGCTTCCCC / TCGCTGCTCAAGCTGAGACCTGTGGAGCAGCGA [positive control processivity substrate]
[1]; active on positive control, 400 mM NaCl, 10 mM MgCl2, label: 5' FAM and 3' BHQ1 on SEQ 72, variant of processivity substrate
  activity on this sequence: active
[2]; active on positive control, variant of processivity substrate
  activity on this sequence: active

## TCGCTGCTCCACAGGTCTCAGCTTGAGCAGCGAAAATAAGAACATTATGATCAGTAGGAGCACTACGACCTTTGTTCTGGTGCTCGTCCGGGCGCCCAAAGTGGAGCGAGTGCCCCC / GCACTCGCTCCACTTTGGGCGCCCGGACGAGCACCAGAACAAAGGTCGTAGTGCTCCTACTGATCATAATGTTCTTATTT / TCGCTGCTCAAGCTGAGACCTGTGGAGCAGCGA [processivity substrate]
[2]; processive: displaces 80 nt blocker and probe
  activity on this sequence: active

## TTTTTTTTTTTTTTTTTTTTTTTTTTTTTTTTTTTTTTTTTTTTTTTTTTGGTTGTTTCTGTTGGTGCTGATATTGCTTTTGATGCCGACCCTAAATTTTTTGCCTGTTTGGTTCGCTTTGAGTCTTCTTCGGTTCCGACTACCCTCCCGACTGCCTATGATGTTTATCCTTTGAATGGTCGCCATGATGGTGGTTATTATACCGTCAAGGACTGTGTGACTATTGACGTCCTTCCCCGTACGCCGGGCAATAACGTTTATGTTGGTTTCATGGTTTGGTCTAACTTTACCGCTACTAAATGCCGCGGATTGGTTTCGCTGAATCAGGTTATTAAAGAGATTATTTGTCTCCAGCCACTTAAGTGAGGTGATTTATGTTTGGTGCTATTGCTGGCGGTATTGCTTCTGCTCTTGCTGGTGGCGCCATGTCTAAATTGTTTGGAGGCGGTC / GCAATATCAGCACCAACAGAAACAACCTTTTTTTTTTTTTTTTTTTTTTTTTTTTTT [400mer PhiX ssDNA with 50T leader and annealed primer]
[3]
  binding result: binds
[4]
  binding result: binds
[5]
  binding result: binds
[6]
  binding result: binds
